Results are given in words; binding and its absence hold for the method and conditions named. Binding seen in cells or lysates may run through a third protein. Binding can be weak; no strength is given. Where a sequence is shown, tags or fusion partners need not be part of it.

In assay [1] the target is HA-PP1. The assay can be described thus: co-immunoprecipitation (anti-GFP) from transfected HEK293 cells, Western blot with anti-PP1.
Assay [2] has as its target HA-PP1. The assay is described as follows: co-immunoprecipitation (anti-GFP), reblot with anti-PP1 antisera (Figure 1B).

B1: EGFP-tra2-beta1 (protein, UniProt P62995 1-288, looked up, not shown: large carriers)
chain: MSDSGEQNYGERESRSASRSGSAHGSGKSARHTPARSRSKEDSRRSRSKSRSRSESRSRSRRSSRRHYTRSRSRSRSHRRSRSRSYSRDYRRRHSHSHSPMSTRRRHVGNRANPDPNCCLGVFGLSLYTTERDLREVFSKYGPIADVSIVYDQQSRRSRGFAFVYFENVDDAKEAKERANGMELDGRRIRVDFSITKRPHTPTPGIYMGRPTYGSSRRRDYYDRGYDRGYDDRDYYSRSYRGGGGGGGGWRAAQDRDQIYRRRSPSPYYSRGGYRSRSRSRSYSPRRY
For B1, the binding entry in assay [1] and in assay [2] was “binds” each time.
